Assay results published in PubChem BioAssay AID248 (DTP/NCI, 2004).
The list shows only some results of the screen, not a fair sample: it is rich in T/C values a quarter to a half above the control, in often repeated tests (any T/C) and in doses without a T/C. Other doses and runs of a compound stand elsewhere. T/C: endpoint of the treated group in % of that of the vehicle group. Some entries give survivors of the animals treated and no T/C: the source holds a T/C of zero for them, seemingly a mark for toxic or unscored doses. Some doses without a T/C left all or most animals alive at the check, yet need not have been tolerated: the source hardly ever lists a survival T/C far under the control, and the zero likely stands for such cases as well. Survivors were counted at the toxicity check, usually on the fifth day, unless a day is given; later deaths do not show. Schedule codes are those of the source, taken here to give the interval after Q, in days (D) or hours (H), and the number of doses after X. Some structures stand for samples that the source files as different forms (salt, stereo form or complex); doses refer to the form tested. Some entries hold several experiments; the results are listed from low to high. Where survival is the endpoint, the PubChem record calls one and a half times the control and up active, and a quarter to a half above the control has no call in these data; cut-offs in other NCI protocols can differ. Some T/C values are followed by the survivors on the day toxicity was checked, most often the fifth; where none is given, no animal had died by that day.

System: L1210 leukemia ip in BDF1 mice, survival T/C
Assay: NCI In Vivo Anticancer Drug Screen. Data for tumor model L1210 Leukemia (intraperitoneal) in B6D2F1 (BDF1) mice
Conditions: higher T/C = longer survival
[1] = T/C endpoint: mean survival time, dose: 16.0 mg/kg/injection, schedule: Q01DX009 (ip), vehicle: saline

In the case of `CCC1=C(C[C@H]2NCCc3cc(OC)c(OC)cc32)C[C@H]2c3cc(OC)c(OC)cc3CCN2C1`, the T/C (T/C endpoint: mean survival time, dose: 2.0 mg/kg/injection, schedule: Q03HX024 (ip), vehicle: saline) is reported as 130 % of control, the T/C (T/C endpoint: mean survival time, dose: 4.0 mg/kg/injection, schedule: Q03HX008 (ip), vehicle: saline) is reported as 129 % of control [8 of 10 alive] and the T/C (T/C endpoint: mean survival time, dose: 4.0 mg/kg/injection, schedule: Q03HX016 (ip), vehicle: saline) is reported as 127 % of control. For the same compound, the T/C (T/C endpoint: mean survival time, dose: 4.0 mg/kg/injection, schedule: Q03HX024 (ip), vehicle: saline) was 134 % of control, the T/C (T/C endpoint: mean survival time, dose: 8.0 mg/kg/injection, schedule: Q01DX005 (ip), vehicle: saline, evaluated on day 30) was 100, 113, 129, 131 % of control and the T/C (T/C endpoint: mean survival time, dose: 8.0 mg/kg/injection, schedule: Q01DX005 (ip), vehicle: saline, evaluated on day 60) was 124 % of control. For the same compound, the T/C (T/C endpoint: mean survival time, dose: 8.0 mg/kg/injection, schedule: Q01DX009 (ip), vehicle: saline) was 125 % of control [9 of 10 alive], the survivor count (T/C endpoint: mean survival time, dose: 8.0 mg/kg/injection, schedule: Q03HX008 (ip), vehicle: saline) was 0 of 10 and the survivor count (T/C endpoint: mean survival time, dose: 8.0 mg/kg/injection, schedule: Q03HX016 (ip), vehicle: saline) was 0 of 10. The survivor count (T/C endpoint: mean survival time, dose: 8.0 mg/kg/injection, schedule: Q03HX024 (ip), vehicle: saline) was 0 of 10, the T/C (T/C endpoint: mean survival time, dose: 9.28 mg/kg/injection, schedule: Q01DX005 (ip), vehicle: saline) was 132 % of control and the T/C (T/C endpoint: mean survival time, dose: 16.0 mg/kg/injection, schedule: Q01DX005 (ip), vehicle: saline, evaluated on day 30) was 131, 132, 186 % of control. The T/C (T/C endpoint: mean survival time, dose: 16.0 mg/kg/injection, schedule: Q01DX005 (ip), vehicle: saline, evaluated on day 60) was 102 % of control [8 of 10 alive], the survivor count (T/C endpoint: mean survival time, dose: 16.0 mg/kg/injection, schedule: Q01DX005 (ip), vehicle: saline) was 10 of 10 and the T/C [1] was 147 % of control. For the same compound, the survivor count [1] was 7 of 10, the survivor count (T/C endpoint: mean survival time, dose: 16.0 mg/kg/injection, schedule: Q03HX008 (ip), vehicle: saline) was 0 of 10 and the survivor count (T/C endpoint: mean survival time, dose: 16.0 mg/kg/injection, schedule: Q03HX016 (ip), vehicle: saline) was 0 of 10. The survivor count (T/C endpoint: mean survival time, dose: 16.0 mg/kg/injection, schedule: Q03HX024 (ip), vehicle: saline) was 0 of 10, the T/C (T/C endpoint: mean survival time, dose: 16.0 mg/kg/injection, schedule: Q04DX003 (ip), vehicle: saline, evaluated on day 30) was 105, 113, 115, 134 % of control and the T/C (T/C endpoint: mean survival time, dose: 16.0 mg/kg/injection, schedule: Q04DX003 (ip), vehicle: saline, evaluated on day 60) was 123 % of control. For the same compound, the survivor count (T/C endpoint: mean survival time, dose: 18.56 mg/kg/injection, schedule: Q01DX005 (ip), vehicle: saline) was 10 of 10, the T/C (T/C endpoint: mean survival time, dose: 18.56 mg/kg/injection, schedule: Q04DX003 (ip), vehicle: saline) was 139 % of control and the T/C (T/C endpoint: mean survival time, dose: 32.0 mg/kg/injection, schedule: Q01DX001 (ip), vehicle: saline) was 132 % of control [8 of 10 alive]. For the same compound, the survivor count (T/C endpoint: mean survival time, dose: 32.0 mg/kg/injection, schedule: Q01DX005 (ip), vehicle: saline) was 0 of 10, 3 of 6, 10 of 10, the survivor count (T/C endpoint: mean survival time, dose: 32.0 mg/kg/injection, schedule: Q01DX005 (oral), vehicle: saline) was 1 of 10 and the survivor count (T/C endpoint: mean survival time, dose: 32.0 mg/kg/injection, schedule: Q01DX005 (sc), vehicle: saline) was 3 of 10. For the same compound, the survivor count (T/C endpoint: mean survival time, dose: 32.0 mg/kg/injection, schedule: Q01DX009 (ip), vehicle: saline) was 0 of 10, the survivor count (T/C endpoint: mean survival time, dose: 32.0 mg/kg/injection, schedule: Q03HX008 (ip), vehicle: saline) was 0 of 10 and the survivor count (T/C endpoint: mean survival time, dose: 32.0 mg/kg/injection, schedule: Q03HX016 (ip), vehicle: saline) was 0 of 10. The T/C (T/C endpoint: mean survival time, dose: 32.0 mg/kg/injection, schedule: Q04DX003 (ip), vehicle: saline, evaluated on day 30) was 112, 126, 134, 143 % of control, the T/C (T/C endpoint: mean survival time, dose: 32.0 mg/kg/injection, schedule: Q04DX003 (ip), vehicle: saline, evaluated on day 60) was 136 % of control and the T/C (T/C endpoint: mean survival time, dose: 32.0 mg/kg/injection, schedule: Q08DX002 (ip), vehicle: saline) was 125 % of control. For the same compound, the survivor count (T/C endpoint: mean survival time, dose: 37.12 mg/kg/injection, schedule: Q01DX005 (ip), vehicle: saline) was 10 of 10, the survivor count (T/C endpoint: mean survival time, dose: 64.0 mg/kg/injection, schedule: Q01DX001 (ip), vehicle: saline) was 1 of 10 and the survivor count (T/C endpoint: mean survival time, dose: 64.0 mg/kg/injection, schedule: Q01DX001 (oral), vehicle: saline) was 6 of 10. For the same compound, the survivor count (T/C endpoint: mean survival time, dose: 64.0 mg/kg/injection, schedule: Q01DX005 (ip), vehicle: saline) was 0 of 10 and 0 of 6, the survivor count (T/C endpoint: mean survival time, dose: 64.0 mg/kg/injection, schedule: Q01DX005 (oral), vehicle: saline) was 0 of 10 and the survivor count (T/C endpoint: mean survival time, dose: 64.0 mg/kg/injection, schedule: Q01DX005 (sc), vehicle: saline) was 0 of 10. For the same compound, the survivor count (T/C endpoint: mean survival time, dose: 64.0 mg/kg/injection, schedule: Q04DX003 (ip), vehicle: saline) was 1 of 10 and 5 of 10, the survivor count (T/C endpoint: mean survival time, dose: 64.0 mg/kg/injection, schedule: Q08DX002 (ip), vehicle: saline) was 0 of 10 and the survivor count (T/C endpoint: mean survival time, dose: 74.24 mg/kg/injection, schedule: Q04DX003 (ip), vehicle: saline) was 10 of 10. The survivor count (T/C endpoint: mean survival time, dose: 128.0 mg/kg/injection, schedule: Q01DX001 (ip), vehicle: saline) was 0 of 10, the survivor count (T/C endpoint: mean survival time, dose: 128.0 mg/kg/injection, schedule: Q01DX001 (oral), vehicle: saline) was 0 of 10 and the survivor count (T/C endpoint: mean survival time, dose: 128.0 mg/kg/injection, schedule: Q01DX001 (sc), vehicle: saline) was 4 of 10. For the same compound, the survivor count (T/C endpoint: mean survival time, dose: 128.0 mg/kg/injection, schedule: Q01DX005 (oral), vehicle: saline) was 0 of 10, the survivor count (T/C endpoint: mean survival time, dose: 128.0 mg/kg/injection, schedule: Q04DX003 (ip), vehicle: saline) was 0 of 10 and the survivor count (T/C endpoint: mean survival time, dose: 128.0 mg/kg/injection, schedule: Q08DX002 (ip), vehicle: saline) was 0 of 10. The survivor count (T/C endpoint: mean survival time, dose: 218.0 mg/kg/injection, schedule: Q04DX003 (ip), vehicle: saline) was 0 of 6, the survivor count (T/C endpoint: mean survival time, dose: 256.0 mg/kg/injection, schedule: Q01DX001 (ip), vehicle: saline) was 0 of 10 and the survivor count (T/C endpoint: mean survival time, dose: 256.0 mg/kg/injection, schedule: Q01DX001 (oral), vehicle: saline) was 0 of 10. For the same compound, the survivor count (T/C endpoint: mean survival time, dose: 256.0 mg/kg/injection, schedule: Q01DX001 (sc), vehicle: saline) was 0 of 10, the survivor count (T/C endpoint: mean survival time, dose: 256.0 mg/kg/injection, schedule: Q08DX002 (ip), vehicle: saline) was 0 of 10 and the survivor count (T/C endpoint: mean survival time, dose: 512.0 mg/kg/injection, schedule: Q01DX001 (oral), vehicle: saline) was 0 of 10. For the same compound, the survivor count (T/C endpoint: mean survival time, dose: 512.0 mg/kg/injection, schedule: Q01DX001 (sc), vehicle: saline) was 0 of 10, the survivor count (T/C endpoint: mean survival time, dose: 1024.0 mg/kg/injection, schedule: Q01DX001 (oral), vehicle: saline) was 0 of 10 and the T/C (T/C endpoint: median survival time, dose: 32.0 mg/kg/injection, schedule: Q04DX003 (ip), vehicle: saline) was 131 % of control. The survivor count (T/C endpoint: median survival time, dose: 64.0 mg/kg/injection, schedule: Q04DX003 (ip), vehicle: saline) was 5 of 7.
`O=[N+]([O-])c1cc(Cl)c(Cl)cc1NS(=O)(=O)c1ccccc1` was tested, and the survivor count (T/C endpoint: mean survival time, dose: 500.0 mg/kg/injection, schedule: Q01DX015 (ip), vehicle: carboxymethylcellulose (CMC)) was 3 of 6 and the survivor count (T/C endpoint: mean survival time, dose: 600.0 mg/kg/injection, schedule: Q01DX015 (ip), vehicle: carboxymethylcellulose (CMC)) was 1 of 6.
`N#Cc1nc2c(nc1C#N)-c1ccccc1C2=O` was tested, and the survivor count (T/C endpoint: mean survival time, dose: 25.0 mg/kg/injection, schedule: Q01DX009 (ip), vehicle: Klucel (hydroxypropylcellulose) (HPC)) was 5 of 6, the survivor count (T/C endpoint: mean survival time, dose: 50.0 mg/kg/injection, schedule: Q04DX003 (ip), vehicle: Klucel (hydroxypropylcellulose) (HPC)) was 0 of 6 and the survivor count (T/C endpoint: mean survival time, dose: 100.0 mg/kg/injection, schedule: Q04DX003 (ip), vehicle: Klucel (hydroxypropylcellulose) (HPC)) was 1 of 6. The survivor count (T/C endpoint: mean survival time, dose: 200.0 mg/kg/injection, schedule: Q04DX003 (ip), vehicle: Klucel (hydroxypropylcellulose) (HPC)) was 0 of 6 and the survivor count (T/C endpoint: mean survival time, dose: 400.0 mg/kg/injection, schedule: Q04DX003 (ip), vehicle: Klucel (hydroxypropylcellulose) (HPC)) was 0 of 6.
For `Clc1ccc([I+]c2ccc(Cl)cc2)cc1`, the survivor count (T/C endpoint: mean survival time, dose: 100.0 mg/kg/injection, schedule: Q04DX002 (ip), vehicle: saline with Tween-80) was 1 of 3, the survivor count (T/C endpoint: mean survival time, dose: 200.0 mg/kg/injection, schedule: Q04DX002 (ip), vehicle: saline with Tween-80) was 0 of 3 and the survivor count (T/C endpoint: mean survival time, dose: 400.0 mg/kg/injection, schedule: Q04DX002 (ip), vehicle: saline with Tween-80) was 0 of 3.
With `CCC(C)(C(=O)NO)c1ccccc1` (centres undefined) the survivor count (T/C endpoint: mean survival time, dose: 400.0 mg/kg/injection, schedule: Q01DX001 (ip), vehicle: saline with Tween-80) was 1 of 6.
